Residue numbers refer to the chain shown, from its start. These are yes or no findings as the source states them, for the method shown. Some binding calls cover weakened binding; strength is not graded here.

This is an account of results in patent US20260108607A1.

First the molecules themselves.
B1: murine antibody 20-2-1 (clone 83F7B2) (antibody, V domains shown)
VH: QIQLVQSGPELKKPGETVKISCKASGYTFTDFSMHWVKQAPGKGLKWMGWINTETGEPSYADDFKGRFAFSLETSASTAYLQINNLKNEDTATYFCANYGYDVRGDYWGQGTTLTVSS
VL: EIVLTQSPTTMAASPGEKITITCSASSSISSNYLHWYQQKPGFSPKLLIYGTSNLASGVPARFSGSGSGTSYSLTIGTMEAEDVATYYCHQGSSIPLTFGAGTKLELK
B2: humanized antibody 40-2-H9 (98G2E9-VH5 + VL5) (scFv)
scFv: EVQLLESGGGLVQPGGSLKLSCAASGFTFSGYAMSWVRQTPGKGLEWVATITSGGSYTYYPDSVKGRFTISRDNSKNTLYLQMNSLRAEDTAMYYCARKDYGNYWFAYWGQGTLVTVSSGGGGSGGGGSGGGGSGGGGSDVVMTQSPLSLPVTLGDPASISCRSSQSLVHSDGNTYLHWYLQRPGQSPRLLIYKVSNRFSGVPDRFSGSGSGTDFTLKISRVEAEDVGVYFCSQTTQVPWTFGGGTKLEIK
B3: humanized antibody 40-2-H12 (98G2E9-VH6 + VL5) (scFv)
scFv: B2 scFv with G42E, S75A
B4: humanized antibody 40-2-H13 (98G2E9-VH6 + VL6) (scFv)
scFv: B2 scFv with G42E, S75A, D156Q, P157Q, R183K, R189K
B5: humanized antibody 40-2-H10 (98G2E9-VH5 + VL6) (scFv)
scFv: B2 scFv with D156Q, P157Q, R183K, R189K
B6: humanized antibody 40-2-H11 (98G2E9-VH5 + VL7) (scFv)
scFv: B2 scFv with P157Q, R183K, R189K
B7: chimeric-VH + VL of clone 20-2-40-2 (98G2E9) (antibody, V domains shown)
VH: EVLLVESGGGLVKPGGSLKLSCAASGFTFSGYAMSWVRQTPEKRLEWVATITSGGSYTYYPDSVKGRFTISRDNAKNTLYLQMSSLRSEDTAMYYCARKDYGNYWFAYWGQGTLVTVSA
VL: DVVMTQTPLSLPVSLGDQASISCRSSQSLVHSDGNTYLHWYLQKPGQSPKLLIYKVSNRFSGVPDRFSGSGSGTDFTLKISRVEAEDLGVYFCSQTTQVPWTFGGGTKLEIK
B8: 20-2-37 (antibody, V domains shown)
VH: B7 VH with L3M, G26R, G31N
VL: B7 VL with T96S, T97I, Q98H
B9: humanized antibody 28-H3 (84C3G8H7-VH3 + VL1) (scFv)
scFv: QVQLVQSGAEVKKPGASVKVSCKASGFNIKDYYMHWVRQAPGQRLEWIGWIDPENGNTIYDPKFQGRATITADTSASTAYMELSSLRSEDTAVYYCARGWFAYWGQGTLVTVSSGGGGSGGGGSGGGGSGGGGSDIVMTQSPDSLAVSLGERATINCKSSQSLLNSSNQKNHLAWYQQKPGQPPKLLIYFASTRASGVPDRFSGSGSGTDFTLTISSLQAEDVAVYYCQQHYSTPLTFGGGTKLELK
B10: humanized antibody 28-H8 (84C3G8H7-VH3 + VL2(PTM)) (scFv)
scFv: B9 scFv with I188V, A195G, Y227F
B11: humanized antibody 28-H5 (84C3G8H7-VH4 + VL1) (scFv)
scFv: B9 scFv with R38K, S77N
B12: humanized antibody 28-H4 (84C3G8H7-VH3 + VL2) (scFv)
scFv: B9 scFv with I188V, Y227F
B13: humanized antibody 28-H9 (84C3G8H7-VH4 + VL1(PTM)) (scFv)
scFv: B9 scFv with R38K, S77N, A195G
B14: humanized antibody 28-H7 (84C3G8H7-VH3 + VL1(PTM)) (scFv)
scFv: B9 scFv with A195G

The target in one experiment is EGFRvIII target antigen (SPR ligand) (UniProt P00533). Description: SPR.
In the case of B1, the binding result was “binds”.

The target is the same in a further experiment. Description: SPR, 1:1 binding fit (target EGFRvIII by the legend and Table 3; not in the panel title). On the technique in general: Surface plasmon resonance follows binding to a sensor surface in real time, without labels.
B2: the binding entry is on record as “binds”.

Regarding B3, the binding result was “binds”.

As for B4, the binding entry is “binds”.

B5: the binding result was “binds”.

Regarding B6, the binding entry was “binds”.

For the molecule B7, the binding entry is “binds”.

Another experiment addresses EGFRvIII overexpressed on target cells (UniProt P00533). Description: flow cytometry of the subclone supernatant on F98npEGFRvIII cells (Geom mean). In general terms: A flow cytometer gives signals particle by particle.
As to B8, the binding entry is reported as “binds”.

The next experiment concerns the target EGFRvIII target antigen (SPR ligand) (UniProt P00533). Description: SPR, 1:1 binding fit.
Take B1: the binding result is given as “binds”.

Regarding B9, the binding result was “binds”.

Turning to B10, the binding result is reported as “binds”.

In the case of B11, the binding result is reported as “binds”.

Regarding B12, the binding entry is given as “binds”.

As to B13, the binding entry is on record as “binds”.

Consider B14, for which the binding result was “binds”.
